Test results taken from the supplement of paper PMC7661543.
± gives the standard deviation of the averaged measurements. The effect of the compound repeats well; differences between the knockouts mostly do not.

Tested on: BT-20
Assay: relative cell number vs DMSO control (72 h) (% of DMSO); higher = less growth inhibition (more cells)
Experimental: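 QMAP-Seq: a pool of 5 breast cancer cell lines (ZR-75-1, SKBR3, HCC-38, MDA-MB-231, BT-20), each carrying 12 doxycycline-inducible Cas9 sgRNA perturbations (11 knockouts plus non-targeting sgNT), was treated with compounds for 72 h at four 10-fold doses (10 nM-10 uM or 1 nM-1 uM range). Barcodes were amplified and sequenced, and cell number was interpolated from 293T spike-in standard curves. The result is expressed as % of the median of DMSO wells. Two biological replicates.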

COCC[n+]1c2c(n(Cc3cnccn3)c1C)C(=O)c1ccccc1C2=O [YM155]
Conditions	relative cell number
sgRNA knockout: sgATF3, 1 nM	91.6 ± 7.2
sgRNA knockout: sgATF3, 10 nM	52.4 ± 7.5
sgRNA knockout: sgATF3, 100 nM	5.27 ± 0.67
sgRNA knockout: sgATF3, 1000 nM	6.39 ± 3.7
sgRNA knockout: sgATF4, 1 nM	91.1 ± 3.5
sgRNA knockout: sgATF4, 10 nM	46.6 ± 2.9
sgRNA knockout: sgATF4, 100 nM	6.44 ± 2.2
sgRNA knockout: sgATF4, 1000 nM	4.63 ± 1.5
sgRNA knockout: sgATF6, 1 nM	96 ± 4.2
sgRNA knockout: sgATF6, 10 nM	47.7 ± 2.9
sgRNA knockout: sgATF6, 100 nM	8.25 ± 0.29
sgRNA knockout: sgATF6, 1000 nM	7.61 ± 4.9
sgRNA knockout: sgATG7, 1 nM	97.7 ± 4.5
sgRNA knockout: sgATG7, 10 nM	44 ± 11
sgRNA knockout: sgATG7, 100 nM	7.25 ± 1.3
sgRNA knockout: sgATG7, 1000 nM	6.09 ± 2.9
sgRNA knockout: sgERN1, 1 nM	93.3 ± 1.8
sgRNA knockout: sgERN1, 10 nM	41.6 ± 2.9
sgRNA knockout: sgERN1, 100 nM	7.08 ± 0.69
sgRNA knockout: sgERN1, 1000 nM	7.74 ± 4.9
sgRNA knockout: sgHSF1, 1 nM	87.9 ± 2.3
sgRNA knockout: sgHSF1, 10 nM	43.1 ± 6
sgRNA knockout: sgHSF1, 100 nM	4.67 ± 0.75
sgRNA knockout: sgHSF1, 1000 nM	4.37 ± 3.1
sgRNA knockout: sgHSF2, 1 nM	109 ± 5.2
sgRNA knockout: sgHSF2, 10 nM	53.3 ± 2
sgRNA knockout: sgHSF2, 100 nM	6.76 ± 2.1
sgRNA knockout: sgHSF2, 1000 nM	4.51 ± 1.8
sgRNA knockout: sgKEAP1, 1 nM	89.4 ± 9.4
sgRNA knockout: sgKEAP1, 10 nM	59.9 ± 6.3
sgRNA knockout: sgKEAP1, 100 nM	8.56 ± 0.89
sgRNA knockout: sgKEAP1, 1000 nM	5.72 ± 1.6
sgRNA knockout: sgNFE2L2, 1 nM	90.7 ± 20
sgRNA knockout: sgNFE2L2, 10 nM	47.8 ± 4.6
sgRNA knockout: sgNFE2L2, 100 nM	4.96 ± 1.1
sgRNA knockout: sgNFE2L2, 1000 nM	4.15 ± 1.1
sgRNA knockout: sgSLC35F2, 1 nM	94.2 ± 2.6
sgRNA knockout: sgSLC35F2, 10 nM	85 ± 18
sgRNA knockout: sgSLC35F2, 100 nM	26 ± 6
sgRNA knockout: sgSLC35F2, 1000 nM	5.25 ± 3
sgRNA knockout: sgXBP1, 1 nM	95.9 ± 7.4
sgRNA knockout: sgXBP1, 10 nM	49.6 ± 4
sgRNA knockout: sgXBP1, 100 nM	4.85 ± 0.5
sgRNA knockout: sgXBP1, 1000 nM	7.3 ± 2.8

FC(F)c1nc2ccccc2n1-c1nc(N2CCOCC2)nc(N2CCOCC2)n1 [ZSTK474]
Conditions	relative cell number
sgRNA knockout: sgATF3, 10 nM	81.7 ± 8.2
sgRNA knockout: sgATF3, 100 nM	98.4 ± 26
sgRNA knockout: sgATF3, 1000 nM	68.5 ± 15
sgRNA knockout: sgATF3, 10000 nM	44.8 ± 4.4
sgRNA knockout: sgATF4, 10 nM	95.5 ± 12
sgRNA knockout: sgATF4, 100 nM	111 ± 22
sgRNA knockout: sgATF4, 1000 nM	80.97 ± 0.71
sgRNA knockout: sgATF4, 10000 nM	53.5 ± 9.4
sgRNA knockout: sgATF6, 10 nM	84.69 ± 0.76
sgRNA knockout: sgATF6, 100 nM	80.2 ± 0.83
sgRNA knockout: sgATF6, 1000 nM	67.3 ± 26
sgRNA knockout: sgATF6, 10000 nM	49.4 ± 5.2
sgRNA knockout: sgATG7, 10 nM	86.1 ± 23
sgRNA knockout: sgATG7, 100 nM	88.8 ± 18
sgRNA knockout: sgATG7, 1000 nM	75.4 ± 14
sgRNA knockout: sgATG7, 10000 nM	47.5 ± 15
sgRNA knockout: sgERN1, 10 nM	88.7 ± 10
sgRNA knockout: sgERN1, 100 nM	79 ± 3.9
sgRNA knockout: sgERN1, 1000 nM	74.5 ± 8.1
sgRNA knockout: sgERN1, 10000 nM	40.7 ± 5.9
sgRNA knockout: sgHSF1, 10 nM	103 ± 16
sgRNA knockout: sgHSF1, 100 nM	88.9 ± 9.9
sgRNA knockout: sgHSF1, 1000 nM	84.2 ± 4.2
sgRNA knockout: sgHSF1, 10000 nM	46.3 ± 4.8
sgRNA knockout: sgHSF2, 10 nM	85.2 ± 14
sgRNA knockout: sgHSF2, 100 nM	94 ± 8.8
sgRNA knockout: sgHSF2, 1000 nM	73.9 ± 6.5
sgRNA knockout: sgHSF2, 10000 nM	46.5 ± 9.3
sgRNA knockout: sgKEAP1, 10 nM	94.6 ± 10
sgRNA knockout: sgKEAP1, 100 nM	88 ± 26
sgRNA knockout: sgKEAP1, 1000 nM	65.6 ± 3.1
sgRNA knockout: sgKEAP1, 10000 nM	51.8 ± 4.4
sgRNA knockout: sgNFE2L2, 10 nM	83.8 ± 22
sgRNA knockout: sgNFE2L2, 100 nM	106 ± 13
sgRNA knockout: sgNFE2L2, 1000 nM	75.81 ± 0.58
sgRNA knockout: sgNFE2L2, 10000 nM	47.5 ± 6.1
sgRNA knockout: sgSLC35F2, 10 nM	91 ± 11
sgRNA knockout: sgSLC35F2, 100 nM	87.4 ± 1.4
sgRNA knockout: sgSLC35F2, 1000 nM	68.7 ± 19
sgRNA knockout: sgSLC35F2, 10000 nM	51.6 ± 13
sgRNA knockout: sgXBP1, 10 nM	85.8 ± 15
sgRNA knockout: sgXBP1, 100 nM	92.3 ± 22
sgRNA knockout: sgXBP1, 1000 nM	78.9 ± 11
sgRNA knockout: sgXBP1, 10000 nM	42.4 ± 8.7

O=c1ncccn1[C@@H]1O[C@H](CO)[C@@H](O)[C@H]1O [Zebularine]
Conditions	relative cell number
sgRNA knockout: sgATF3, 10 nM	115 ± 16
sgRNA knockout: sgATF3, 100 nM	93.9 ± 18
sgRNA knockout: sgATF3, 1000 nM	94.7 ± 8.4
sgRNA knockout: sgATF3, 10000 nM	119 ± 21
sgRNA knockout: sgATF4, 10 nM	115.7 ± 0.81
sgRNA knockout: sgATF4, 100 nM	86.6 ± 20
sgRNA knockout: sgATF4, 1000 nM	95.5 ± 3.7
sgRNA knockout: sgATF4, 10000 nM	108 ± 5.9
sgRNA knockout: sgATF6, 10 nM	104 ± 6
sgRNA knockout: sgATF6, 100 nM	100 ± 14
sgRNA knockout: sgATF6, 1000 nM	99 ± 14
sgRNA knockout: sgATF6, 10000 nM	106 ± 5.4
sgRNA knockout: sgATG7, 10 nM	130 ± 32
sgRNA knockout: sgATG7, 100 nM	96.4 ± 27
sgRNA knockout: sgATG7, 1000 nM	102 ± 19
sgRNA knockout: sgATG7, 10000 nM	120 ± 9.4
sgRNA knockout: sgERN1, 10 nM	103 ± 16
sgRNA knockout: sgERN1, 100 nM	104 ± 2.5
sgRNA knockout: sgERN1, 1000 nM	103 ± 9
sgRNA knockout: sgERN1, 10000 nM	91 ± 1
sgRNA knockout: sgHSF1, 10 nM	131 ± 54
sgRNA knockout: sgHSF1, 100 nM	112 ± 21
sgRNA knockout: sgHSF1, 1000 nM	89.1 ± 13
sgRNA knockout: sgHSF1, 10000 nM	107 ± 28
sgRNA knockout: sgHSF2, 10 nM	95.1 ± 4.2
sgRNA knockout: sgHSF2, 100 nM	93.1 ± 17
sgRNA knockout: sgHSF2, 1000 nM	88.3 ± 26
sgRNA knockout: sgHSF2, 10000 nM	84.7 ± 18
sgRNA knockout: sgKEAP1, 10 nM	102 ± 25
sgRNA knockout: sgKEAP1, 100 nM	105 ± 3.7
sgRNA knockout: sgKEAP1, 1000 nM	97.6 ± 6.7
sgRNA knockout: sgKEAP1, 10000 nM	108 ± 11
sgRNA knockout: sgNFE2L2, 10 nM	109 ± 19
sgRNA knockout: sgNFE2L2, 100 nM	102 ± 11
sgRNA knockout: sgNFE2L2, 1000 nM	94.3 ± 18
sgRNA knockout: sgNFE2L2, 10000 nM	82.9 ± 8.5
sgRNA knockout: sgSLC35F2, 10 nM	105 ± 51
sgRNA knockout: sgSLC35F2, 100 nM	94.8 ± 14
sgRNA knockout: sgSLC35F2, 1000 nM	81.8 ± 4.7
sgRNA knockout: sgSLC35F2, 10000 nM	99.5 ± 16
sgRNA knockout: sgXBP1, 10 nM	102 ± 22
sgRNA knockout: sgXBP1, 100 nM	102 ± 17
sgRNA knockout: sgXBP1, 1000 nM	88.5 ± 3
sgRNA knockout: sgXBP1, 10000 nM	117 ± 16
